Measurements taken from the supplement of paper PMC8104966.
Some of the results follow. Single values are uncertain here, since repeats match poorly.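 U2OS cells expressing ACE2 were combined with U2OS cells expressing full-length spike, and imaging quantified fusion as the fraction of nuclei displaying both cell types' fluorescent markers. Non-toxic compounds with a fusion z-score under -3, i.e., over three standard deviations below the plate's DMSO wells, are called inhibitory hits.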

System: U2OS ACE2 x SARS-CoV-2 spike co-culture
Assay: cell-cell fusion (fraction fused) z-score vs plate DMSO control; higher = more fusion
Conditions: 30 µM; 5 h; toxicity class: non-toxic, passed QC

Question: `CCN(Cc1cccc(S(=O)(=O)[O-])c1)c1cccc(C(=C2C=CC(=[N+](CC)Cc3cccc(S(=O)(=O)[O-])c3)C=C2)c2ccc(O)cc2S(=O)(=O)[O-])c1.[Na+].[Na+]` was tested. Which “cell-cell fusion (z-score)” value did it give?
Answer: inactive: 2.8

Question: `Cl.c1ccc2c(c1)CCCC2C1=NCCN1` (stereo not drawn) [Tetrahydrozoline hydrochloride] was tested. Which “cell-cell fusion (z-score)” value did it give?
Answer: inactive: 1.77

Question: With `Cl.c1ccc2c(c1)CCCC2C1=NCCN1` (stereo not drawn) [Tetrahydrozoline HCl] as the compound, how does the “cell-cell fusion (z-score)” value read?
Answer: inactive: 2.62

Question: Which “cell-cell fusion (z-score)” value does the source give for `CCOC(=O)C1=C(C)NC(C)=C(C(=O)OCC)C1c1c(F)c(F)c(F)c(F)c1F` [Nemadipine-A] here?
Answer: inactive: 2.81

Question: How did the “cell-cell fusion (z-score)” value turn out when `O=C(CCSCc1ccco1)NNC(=O)N1Cc2ccccc2Oc2ccc(Cl)cc21` was run?
Answer: inactive: 1.64

Question: With `CN(CCC(Oc1ccc(C(=O)c2nccs2)cc1)c1ccc(Cl)cc1)CC(=O)O.Cl.O` (stereo not drawn) as the compound, how does the “cell-cell fusion (z-score)” value read?
Answer: inactive: 2.25

Question: How did the “cell-cell fusion (z-score)” value turn out when `O=C(NC[C@H]1CN(c2ccc(N3CCOCC3=O)cc2)C(=O)O1)c1ccc(Cl)s1` [Rivaroxaban] was run?
Answer: inactive: 0.193

Question: How did the “cell-cell fusion (z-score)” value turn out when `COc1cc2nccc(Oc3ccc(NC(=O)NC4CC4)c(Cl)c3)c2cc1C(N)=O` [E7080 (Lenvatinib)] was run?
Answer: inactive: 2.61

Question: With `COc1cc2nccc(Oc3ccc(NC(=O)NC4CC4)c(Cl)c3)c2cc1C(N)=O` [Lenvatinib (E7080)] as the compound, how does the “cell-cell fusion (z-score)” value read?
Answer: inactive: -1.47

Question: How did the “cell-cell fusion (z-score)” value turn out when `Nc1ccc(S(=O)(=O)Nc2ccccn2)cc1` [Sulfapyridine] was run?
Answer: inactive: 1.94

Question: `C#C[C@]1(OC(C)=O)CC[C@H]2[C@@H]3CCC4=C[C@@H](OC(C)=O)CC[C@@H]4[C@H]3CC[C@@]21C` [Ethynodiol diacetate] was tested. Which “cell-cell fusion (z-score)” value did it give?
Answer: inactive: 0.111

Question: How did the “cell-cell fusion (z-score)” value turn out when `CN(C[C@@H]1COCCO1)S(=O)(=O)Nc1ccc2ccc3ncc(-c4cnn(C)c4)cc3c(=O)c2c1` was run?
Answer: inactive: -2.15

Question: For `CC(C)[C@H]1CC[C@H](C(=O)N[C@H](Cc2ccccc2)C(=O)O)CC1` [Nateglinide], which “cell-cell fusion (z-score)” value is on record?
Answer: inactive: 2.13

Question: Which “cell-cell fusion (z-score)” value does the source give for `CC(O)(CS(=O)(=O)c1ccc(F)cc1)C(=O)Nc1ccc(C#N)c(C(F)(F)F)c1` (stereo not drawn) [Bicalutamide] here?
Answer: inactive: 3.52

Question: Which “cell-cell fusion (z-score)” value does the source give for `Nc1nc2ccc(Cl)cc2n2c(-c3ccccc3)nnc12` here?
Answer: inactive: 1.64

Question: `CC(=O)O[C@H]1CC[C@@]2(C)C(=CCC3C2CC[C@@]2(C)C3C[C@H]3O[C@]32C(C)=O)C1` (stereo partly drawn) was tested. Which “cell-cell fusion (z-score)” value did it give?
Answer: inactive: 0.803

Question: Which “cell-cell fusion (z-score)” value does the source give for `CCCN(CCC)S(=O)(=O)c1ccc(C(=O)O)cc1` here?
Answer: inactive: -0.54

Question: How did the “cell-cell fusion (z-score)” value turn out when `COC(=O)[C@H](CCCNC(=N)N)NS(=O)(=O)c1ccc(C)cc1` was run?
Answer: inactive: 2.73

Question: Which “cell-cell fusion (z-score)” value does the source give for `Cl.Cl.N=C(NCCCCCCNC(=N)NC(=N)Nc1ccc(Cl)cc1)NC(=N)Nc1ccc(Cl)cc1` here?
Answer: active: -7.83

Question: `C[C@](N)(Cc1ccc(O)c(O)c1)C(=O)O` was tested. Which “cell-cell fusion (z-score)” value did it give?
Answer: inactive: 0.967

Question: `Nc1ccc(C(=O)Nc2cccc(-c3nc(N4CCOCC4)c4oc5ncccc5c4n3)c2)cn1` was tested. Which “cell-cell fusion (z-score)” value did it give?
Answer: inactive: 1.34

Question: How did the “cell-cell fusion (z-score)” value turn out when `Cc1ccc(Cl)c(Nc2ccccc2C(=O)[O-])c1Cl.[Na+]` [Meclofenamate Sodium] was run?
Answer: inactive: 2.6

Question: How did the “cell-cell fusion (z-score)” value turn out when `CC[C@H]1OC(=O)[C@H](C)[C@@H](O[C@H]2C[C@@](C)(OC)[C@@H](O)[C@H](C)O2)[C@H](C)[C@@H](O[C@@H]2O[C@H](C)C[C@H](N(C)C)[C@H]2O)[C@](C)(O)C[C@@H](C)CN(C)[C@H](C)[C@@H](O)[C@]1(C)O.O.O` [Azithromycin] was run?
Answer: inactive: 2.26

Question: How did the “cell-cell fusion (z-score)” value turn out when `CC(O)(P(=O)([O-])O)P(=O)([O-])O.[Na+].[Na+]` [Sodium etidronate] was run?
Answer: inactive: 2.71

Question: For `O=C1CCC(N2C(=O)c3ccccc3C2=O)C(=O)N1` (racemic) [(±)-Thalidomide], which “cell-cell fusion (z-score)” value is on record?
Answer: inactive: 1.96

Question: With `CC(C)OC(=O)C(C)(C)Oc1ccc(C(=O)c2ccc(Cl)cc2)cc1` [Fenofibrate] as the compound, how does the “cell-cell fusion (z-score)” value read?
Answer: inactive: 4.01

Question: How did the “cell-cell fusion (z-score)” value turn out when `Cl.N#Cc1ccc2[nH]cc(CCCCN3CCN(c4ccc5oc(C(N)=O)cc5c4)CC3)c2c1` [Vilazodone HCl] was run?
Answer: inactive: 1.22

Question: How did the “cell-cell fusion (z-score)” value turn out when `NC(CCCP(=O)(O)O)C(=O)O` (racemic) [(±)-2-Amino-5-phosphonopentanoic acid] was run?
Answer: inactive: 1.13

Question: `Nc1ccc(S(N)(=O)=O)cc1` [Sulfanilamide] was tested. Which “cell-cell fusion (z-score)” value did it give?
Answer: inactive: 3.41

Question: Which “cell-cell fusion (z-score)” value does the source give for `CC(C)NC[C@H](O)COc1cccc2[nH]ccc12` [S(-)-Pindolol] here?
Answer: inactive: 2.31

Question: Which “cell-cell fusion (z-score)” value does the source give for `COc1cc(Nc2ncc(F)c(Nc3ccc4c(n3)NC(=O)C(C)(C)O4)n2)cc(OC)c1OC` [R406 (free base)] here?
Answer: inactive: 0.65

Question: For `Nc1ccc(C(=O)O)c(O)c1` [Aminopar], which “cell-cell fusion (z-score)” value is on record?
Answer: inactive: 3.85

Question: `COc1c(O)cccc1O` was tested. Which “cell-cell fusion (z-score)” value did it give?
Answer: inactive: 2.11

Question: `C[C@H]1CC2C3CCC4=CC(=O)C=C[C@]4(C)[C@@]3(F)[C@@H](O)C[C@]2(C)[C@@]1(O)C(=O)COP(=O)([O-])[O-].[Na+].[Na+]` (stereo partly drawn) was tested. Which “cell-cell fusion (z-score)” value did it give?
Answer: inactive: 3.26

Question: How did the “cell-cell fusion (z-score)” value turn out when `N=C(NCCC[C@H](N)C(=O)O)N[N+](=O)[O-]` was run?
Answer: inactive: 1.83

Question: Which “cell-cell fusion (z-score)” value does the source give for `C[N+](C)(C)CCCCCCCCCC[N+](C)(C)C.[Br-].[Br-]` [Decamethonium bromide] here?
Answer: inactive: 2.08

Question: Which “cell-cell fusion (z-score)” value does the source give for `COc1ccc([C@@H]2Sc3ccccc3N(CCN(C)C)C(=O)[C@@H]2OC(C)=O)cc1.Cl` [Diltiazem hydrochloride] here?
Answer: inactive: 0.748

Question: With `Cl.NCC(=O)c1ccccc1` as the compound, how does the “cell-cell fusion (z-score)” value read?
Answer: inactive: 1.15

Question: Which “cell-cell fusion (z-score)” value does the source give for `CC1OC1P(=O)([O-])[O-].[Na+].[Na+]` (stereo not drawn) [Phosphomycin disodium] here?
Answer: inactive: 1.18

Question: Which “cell-cell fusion (z-score)” value does the source give for `CCCCCCCCCCC[C@@H](C[C@@H]1OC(=O)[C@H]1CCCCCC)OC(=O)[C@H](CC(C)C)NC=O` [Orlistat] here?
Answer: inactive: 3.44

Question: `Cl.Cl.Fc1ccc(C(OCCN2CCN(CCCc3ccccc3)CC2)c2ccc(F)cc2)cc1` was tested. Which “cell-cell fusion (z-score)” value did it give?
Answer: inactive: -2.75

Question: With `CN[C@@H](Cc1c[nH]c2ccccc12)C(=O)O` as the compound, how does the “cell-cell fusion (z-score)” value read?
Answer: inactive: 1.72

Question: With `CC(=O)OCC(CCn1cnc2cnc(N)nc21)COC(C)=O` [Famciclovir] as the compound, how does the “cell-cell fusion (z-score)” value read?
Answer: inactive: 1.42
